Measured values as given in PubChem BioAssay (EPA / NIEHS).
The shares of active, inactive and inconclusive entries below differ from those in the screen. Where the call is inconclusive, the potency comes from a doubtful curve fit. The source made the active and inactive calls. Rule for the calls: active = hit-call score of the fitted dose curve at least 0.9, where 1 is the maximum; inconclusive = response in the unintended direction; inactive = score below 0.9.

Chains of the proteins cited; added tags and fusions are not shown. Lines headed by an entry give the natural chain unless they say otherwise; changes in a name come on top.
UniProt P13631, whole entry, looked up: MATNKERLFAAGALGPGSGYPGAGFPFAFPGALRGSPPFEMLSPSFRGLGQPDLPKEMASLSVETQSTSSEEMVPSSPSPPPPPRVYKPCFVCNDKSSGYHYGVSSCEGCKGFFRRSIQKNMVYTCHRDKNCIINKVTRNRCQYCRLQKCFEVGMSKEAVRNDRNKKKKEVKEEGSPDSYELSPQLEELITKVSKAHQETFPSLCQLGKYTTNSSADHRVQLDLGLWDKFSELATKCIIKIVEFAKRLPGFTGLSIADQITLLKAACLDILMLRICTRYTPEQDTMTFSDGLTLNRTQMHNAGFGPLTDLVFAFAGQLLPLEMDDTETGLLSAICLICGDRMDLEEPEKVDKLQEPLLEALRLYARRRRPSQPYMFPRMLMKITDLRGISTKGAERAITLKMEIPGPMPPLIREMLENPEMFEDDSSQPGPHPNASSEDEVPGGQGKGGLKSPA
UniProt Q92753: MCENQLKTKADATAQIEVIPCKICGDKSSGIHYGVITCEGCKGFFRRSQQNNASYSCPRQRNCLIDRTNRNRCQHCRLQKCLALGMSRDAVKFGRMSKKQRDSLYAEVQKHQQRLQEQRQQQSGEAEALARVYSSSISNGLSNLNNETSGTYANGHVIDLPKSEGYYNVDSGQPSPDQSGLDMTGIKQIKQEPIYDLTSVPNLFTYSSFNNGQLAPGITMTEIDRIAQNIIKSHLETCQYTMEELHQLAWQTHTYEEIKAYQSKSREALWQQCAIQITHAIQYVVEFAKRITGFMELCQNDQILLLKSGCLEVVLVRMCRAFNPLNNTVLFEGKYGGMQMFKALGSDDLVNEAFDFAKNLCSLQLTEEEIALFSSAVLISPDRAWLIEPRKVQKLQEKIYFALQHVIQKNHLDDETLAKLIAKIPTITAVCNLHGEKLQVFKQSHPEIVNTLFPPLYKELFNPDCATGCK

molecular target: human Retinoic Acid Receptor gamma (RARg), RARG (gene 5916) (UniProt P13631); assay: ATG_RARg_TRANS: Attagene TRANS-FACTORIAL HepG2 Assay for human Retinoic Acid Receptor gamma (RARg) (AID 2283009);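 for AC50: AC50 is for reporter induction above DMSO meaning RARg activation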
How it was run: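 TRANS format measured activity of exogenous NR-GAL4 fusion (RARg) in transfected HepG2 liver cells after 24 h dosing. Induced reporter RNA was detected by RT-PCR/capillary electrophoresis fluorescence, analysed in the positive direction against DMSO.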

| SMILES | AC50 | outcome |
| --- | --- | --- |
| O=C(NS(=O)(=O)/C=C/c1cccs1)c1ccc(F)cc1Br | inconclusive: 27.8 µM |  |
| C=CC(C)(O)CCC=C(C)C (stereo not drawn) | inconclusive: 175 µM |  |
| CC(C)CC(=O)OCc1ccccc1 | inconclusive: 22.3 µM |  |
| CC(C)c1ccc(C(=O)N=C(N)N)cc1S(C)(=O)=O | inconclusive: 100 µM |  |
| CCCCCCCCCO | inconclusive: 174 µM |  |
| C=C(C)C(=O)OCCOC(=O)C(=C)C |  | inactive |
| Fc1ccccc1[C@@H](F)COC1CCC(Nc2ncnc3[nH]ncc23)CC1 (stereo partly drawn) | inconclusive: 23.6 µM |  |
| CN1Cc2c(N)cccc2C(c2ccccc2)C1 (stereo not drawn) |  | inactive |
| CCCOC(=O)c1c(Cl)c(Cl)c(Cl)c(Cl)c1C(=O)OCCC | inconclusive: 47.3 µM |  |
| CC(C)(C)c1ccc(O)c(C(C)(C)C)c1 |  | inactive |
| C=C(C#N)C(=O)OCC | inconclusive: 160 µM |  |
| NCC1CCCC(CN)C1 (stereo not drawn) | inconclusive: 100 µM |  |
| c1cc(C(c2ccc(OCC3CO3)cc2)C(c2ccc(OCC3CO3)cc2)c2ccc(OCC3CO3)cc2)ccc1OCC1CO1 (stereo not drawn) | inconclusive: 26 µM |  |
| Nc1c(Br)cc([N+](=O)[O-])cc1Br |  | inactive |
| C/C=C(\C)C(=O)OCC/C=C\CC | inconclusive: 13.7 µM |  |
| O=c1cc(-c2ccccc2)oc2cc(O)cc(O)c12 |  | inactive |
| c1ccc(CNCc2ccccc2)cc1 | inconclusive: 3.57 µM |  |
| C=CCCCCCCCCC=O | inconclusive: 172 µM |  |
| OCC(F)(F)C(F)(F)C(F)(F)C(F)(F)C(F)(F)C(F)F | inconclusive: 150 µM |  |

| SMILES | AC50 | outcome |
| --- | --- | --- |
| CC(=O)C1(C)CC2=C(CCCC2(C)C)CC1C (stereo not drawn) | inconclusive: 167 µM |  |
| CC(C)(C)c1cccc(C(C)(C)C)c1O |  | inactive |
| COC(=O)CC(C(C)=O)C(=O)OC (stereo not drawn) | inconclusive: 51.1 µM |  |
| Nc1ccc(Oc2ccc(N)c(N)c2)cc1 |  | inactive |
| CCOC(=O)c1ccc(N)cc1 | inconclusive: 100 µM |  |
| O=C(Nc1ccc(Cl)c(Cl)c1)c1cc(Cl)cc(Cl)c1O |  | inactive |
| O=C(O)C(F)(F)C(F)(F)C(F)(F)OC(F)(F)F | inconclusive: 150 µM |  |
| C1CCOC1 |  | inactive |
| CCN=C1C=CC(=C(c2ccc(N(CC)CC)cc2)c2ccc(N(CC)CC)cc2)c2ccccc21 | inconclusive: 1.81 µM |  |
| COC(=O)[C@]1(C)CCC[C@@]2(C)[C@H]1CC=C1C=C(C(C)C)CC[C@@H]12 |  | inactive |
| O=C(O)C(c1ccc(Cl)cc1)c1ccc(Cl)cc1 | inconclusive: 100 µM |  |
| COc1ccc(N=Nc2cc(C)c(N=Nc3ccc(S(=O)(=O)O)cc3)cc2OC)cc1 | inconclusive: 14.3 µM |  |
| CCCCC(CC)COS(=O)(=O)O (stereo not drawn) | inconclusive: 100 µM |  |
| CCOC(C=C(C)CCC=C(C)C)OCC | inconclusive: 100 µM |  |
| NC(=O)NO | inconclusive: 24.5 µM |  |
| CC(=O)c1ccccc1O | inconclusive: 100 µM |  |

molecular target: human RAR-related Orphan Receptor beta (RORb), RORB (gene 6096) (UniProt Q92753); assay: ATG_RORb_TRANS: Attagene TRANS-FACTORIAL HepG2 Assay for human RAR-related Orphan Receptor beta (RORb) (AID 2283010);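 for AC50: potency for increased reporter mRNA meaning activation of RORb-Gal4 chimera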
How it was run: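 Transfect HepG2 with multiple GAL4-UAS reporter transcription units; dose chemicals for 24 h; isolate RNA, reverse-transcribe and PCR-amplify reporter sequences; label, digest and resolve fragments by capillary electrophoresis; fit increases relative to DMSO.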

| SMILES | outcome | AC50 |
| --- | --- | --- |
| O=C(NS(=O)(=O)/C=C/c1cccs1)c1ccc(F)cc1Br | inactive |  |
| C=CC(C)(O)CCC=C(C)C (stereo not drawn) | inactive |  |
| CC(C)CC(=O)OCc1ccccc1 |  | inconclusive: 2.63 µM |
| CC(C)c1ccc(C(=O)N=C(N)N)cc1S(C)(=O)=O |  | inconclusive: 100 µM |
| CCCCCCCCCO |  | inconclusive: 100 µM |
| C=C(C)C(=O)OCCOC(=O)C(=C)C | inactive |  |
| Fc1ccccc1[C@@H](F)COC1CCC(Nc2ncnc3[nH]ncc23)CC1 (stereo partly drawn) |  | inconclusive: 2.53 µM |
| CN1Cc2c(N)cccc2C(c2ccccc2)C1 (stereo not drawn) |  | inconclusive: 57.4 µM |
| CCCOC(=O)c1c(Cl)c(Cl)c(Cl)c(Cl)c1C(=O)OCCC |  | inconclusive: 100 µM |
| CC(C)(C)c1ccc(O)c(C(C)(C)C)c1 | inactive |  |
| C=C(C#N)C(=O)OCC | inactive |  |
| NCC1CCCC(CN)C1 (stereo not drawn) |  | inconclusive: 100 µM |
| c1cc(C(c2ccc(OCC3CO3)cc2)C(c2ccc(OCC3CO3)cc2)c2ccc(OCC3CO3)cc2)ccc1OCC1CO1 (stereo not drawn) |  | inconclusive: 147 µM |
| Nc1c(Br)cc([N+](=O)[O-])cc1Br | inactive |  |
| C/C=C(\C)C(=O)OCC/C=C\CC |  | inconclusive: 100 µM |
| O=c1cc(-c2ccccc2)oc2cc(O)cc(O)c12 |  | inconclusive: 0.668 µM |
| c1ccc(CNCc2ccccc2)cc1 |  | inconclusive: 151 µM |
| C=CCCCCCCCCC=O | inactive |  |
| OCC(F)(F)C(F)(F)C(F)(F)C(F)(F)C(F)(F)C(F)F |  | inconclusive: 150 µM |

5 entries picked at random from those above:

| SMILES | outcome | AC50 |
| --- | --- | --- |
| C=C(C#N)C(=O)OCC | inactive |  |
| C=CC(C)(O)CCC=C(C)C (stereo not drawn) | inactive |  |
| CC(C)(C)c1ccc(O)c(C(C)(C)C)c1 | inactive |  |
| C/C=C(\C)C(=O)OCC/C=C\CC |  | inconclusive: 100 µM |
| Fc1ccccc1[C@@H](F)COC1CCC(Nc2ncnc3[nH]ncc23)CC1 (stereo partly drawn) |  | inconclusive: 2.53 µM |

The results go on:

| SMILES | outcome | AC50 |
| --- | --- | --- |
| CC(=O)C1(C)CC2=C(CCCC2(C)C)CC1C (stereo not drawn) |  | inconclusive: 100 µM |
| CC(C)(C)c1cccc(C(C)(C)C)c1O | inactive |  |
| COC(=O)CC(C(C)=O)C(=O)OC (stereo not drawn) |  | inconclusive: 100 µM |
| Nc1ccc(Oc2ccc(N)c(N)c2)cc1 |  | inconclusive: 100 µM |
| CCOC(=O)c1ccc(N)cc1 |  | inconclusive: 100 µM |
| O=C(Nc1ccc(Cl)c(Cl)c1)c1cc(Cl)cc(Cl)c1O | inactive |  |
| O=C(O)C(F)(F)C(F)(F)C(F)(F)OC(F)(F)F |  | inconclusive: 150 µM |
| C1CCOC1 | inactive |  |
| CCN=C1C=CC(=C(c2ccc(N(CC)CC)cc2)c2ccc(N(CC)CC)cc2)c2ccccc21 |  | inconclusive: 0.988 µM |
| COC(=O)[C@]1(C)CCC[C@@]2(C)[C@H]1CC=C1C=C(C(C)C)CC[C@@H]12 |  | inconclusive: 100 µM |
| O=C(O)C(c1ccc(Cl)cc1)c1ccc(Cl)cc1 |  | inconclusive: 19.8 µM |
| COc1ccc(N=Nc2cc(C)c(N=Nc3ccc(S(=O)(=O)O)cc3)cc2OC)cc1 | inactive |  |
| CCCCC(CC)COS(=O)(=O)O (stereo not drawn) |  | inconclusive: 100 µM |
| CCOC(C=C(C)CCC=C(C)C)OCC |  | inconclusive: 100 µM |
| NC(=O)NO | inactive |  |
| CC(=O)c1ccccc1O | inactive |  |
